Results are given in words; binding and its absence hold for the method and conditions named. Binding seen in cells or lysates may run through a third protein. Here binding means that the protein was enriched with, or labelled near, the bait; the list need not be complete.

Sequences of proteins named here, by UniProt entry; tags and fusion partners are left off.
UniProt Q9S7C9: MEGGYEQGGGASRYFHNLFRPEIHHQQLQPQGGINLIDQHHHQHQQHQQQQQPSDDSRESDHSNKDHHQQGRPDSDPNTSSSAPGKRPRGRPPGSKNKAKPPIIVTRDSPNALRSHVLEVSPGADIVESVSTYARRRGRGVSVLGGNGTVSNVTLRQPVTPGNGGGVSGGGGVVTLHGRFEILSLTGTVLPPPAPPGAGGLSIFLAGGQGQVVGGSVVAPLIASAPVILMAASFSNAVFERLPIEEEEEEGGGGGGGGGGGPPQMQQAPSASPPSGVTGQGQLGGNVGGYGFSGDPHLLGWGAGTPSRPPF
UniProt P22953: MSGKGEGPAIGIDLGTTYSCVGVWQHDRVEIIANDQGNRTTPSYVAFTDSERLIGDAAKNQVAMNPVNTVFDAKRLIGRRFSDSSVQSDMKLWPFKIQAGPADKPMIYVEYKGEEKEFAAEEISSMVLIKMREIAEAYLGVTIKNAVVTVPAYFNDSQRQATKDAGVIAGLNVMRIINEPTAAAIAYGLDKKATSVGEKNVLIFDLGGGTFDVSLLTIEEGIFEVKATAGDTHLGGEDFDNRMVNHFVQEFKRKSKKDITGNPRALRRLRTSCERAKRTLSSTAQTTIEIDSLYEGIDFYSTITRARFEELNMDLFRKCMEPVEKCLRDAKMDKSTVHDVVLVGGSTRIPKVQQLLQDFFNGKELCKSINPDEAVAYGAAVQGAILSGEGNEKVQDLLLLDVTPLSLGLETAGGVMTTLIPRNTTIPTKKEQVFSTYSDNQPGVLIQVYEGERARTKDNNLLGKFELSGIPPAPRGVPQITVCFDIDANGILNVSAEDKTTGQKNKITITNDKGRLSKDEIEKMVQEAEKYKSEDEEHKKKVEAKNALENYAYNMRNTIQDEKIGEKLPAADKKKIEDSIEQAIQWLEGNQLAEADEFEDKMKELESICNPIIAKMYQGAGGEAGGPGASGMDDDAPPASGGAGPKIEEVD
UniProt O22130: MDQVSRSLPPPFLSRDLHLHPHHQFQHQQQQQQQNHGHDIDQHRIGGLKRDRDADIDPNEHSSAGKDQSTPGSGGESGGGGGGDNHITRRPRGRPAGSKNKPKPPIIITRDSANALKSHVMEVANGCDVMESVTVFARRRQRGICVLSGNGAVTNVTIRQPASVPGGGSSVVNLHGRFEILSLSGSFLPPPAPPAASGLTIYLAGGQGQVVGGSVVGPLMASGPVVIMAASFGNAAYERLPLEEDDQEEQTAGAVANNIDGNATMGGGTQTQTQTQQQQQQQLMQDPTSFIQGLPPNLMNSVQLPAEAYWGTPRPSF
UniProt P22954: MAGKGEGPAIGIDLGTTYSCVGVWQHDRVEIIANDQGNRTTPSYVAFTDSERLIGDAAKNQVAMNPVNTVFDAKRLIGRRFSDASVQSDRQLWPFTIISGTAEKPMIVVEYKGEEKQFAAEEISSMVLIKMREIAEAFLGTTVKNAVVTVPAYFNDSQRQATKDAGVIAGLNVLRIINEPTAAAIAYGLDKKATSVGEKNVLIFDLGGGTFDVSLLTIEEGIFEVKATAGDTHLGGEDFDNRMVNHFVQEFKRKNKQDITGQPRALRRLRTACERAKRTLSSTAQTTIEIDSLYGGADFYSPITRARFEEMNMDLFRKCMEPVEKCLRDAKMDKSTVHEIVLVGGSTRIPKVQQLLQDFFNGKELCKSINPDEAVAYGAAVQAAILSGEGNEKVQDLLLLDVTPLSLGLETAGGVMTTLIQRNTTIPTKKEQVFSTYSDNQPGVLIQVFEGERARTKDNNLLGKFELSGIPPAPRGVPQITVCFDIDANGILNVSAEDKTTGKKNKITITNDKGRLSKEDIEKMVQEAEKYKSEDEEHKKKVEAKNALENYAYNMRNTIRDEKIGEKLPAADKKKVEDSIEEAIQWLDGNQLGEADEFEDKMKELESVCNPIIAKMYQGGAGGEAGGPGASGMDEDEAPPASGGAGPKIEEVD
UniProt O49662: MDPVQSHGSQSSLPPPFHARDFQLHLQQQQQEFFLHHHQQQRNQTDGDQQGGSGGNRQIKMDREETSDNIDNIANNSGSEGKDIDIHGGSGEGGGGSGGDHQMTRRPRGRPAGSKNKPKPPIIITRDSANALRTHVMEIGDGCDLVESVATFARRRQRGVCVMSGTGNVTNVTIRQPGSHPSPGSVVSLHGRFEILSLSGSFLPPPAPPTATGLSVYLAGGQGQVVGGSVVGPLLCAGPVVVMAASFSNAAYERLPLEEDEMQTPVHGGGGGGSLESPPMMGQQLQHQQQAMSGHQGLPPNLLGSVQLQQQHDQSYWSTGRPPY

For this test, the target named is GFP-AHL17 fusion protein (Arabidopsis thaliana) (UniProt Q9LTA2). The test is described as follows: affinity purification with mass spectrometry; proteins extracted from 7-day-old 35S::GFP-AHL17 Arabidopsis seedlings (methods: roots), precipitated with anti-GFP antibody, mass spectrometry; WT plants as negative control.
As for “AHL27 (endogenous) (from UniProt Q9S7C9 1-311)”, the binding result is given as “binds”.
Take “HEAT SHOCK PROTEIN 70-1 (endogenous) (from UniProt P22953 1-651)”: the binding result is “binds”.
With “AHL22 (endogenous) (from UniProt O22130 1-317)”, the binding entry is reported as “binds”.
“HSP70-2 (endogenous) (from UniProt P22954 1-653)”: the binding entry is listed as “binds”.
On to “AHL24 (endogenous) (from UniProt O49662 1-324)”, for which the binding entry is “binds”.

These data come from article PMC10416611.
